# Measurements as given in article PMC10449828, “Fanconi anemia associated protein 20 (FAAP20) plays an essential role in homology-directed repair of DNA double-strand breaks”.
# Experiments:
# Assay in all cases: EMSA
# FANCA (human) = molecular target: T1, FANCA (human) (UniProt O15360); conditions: EMSA: 125 mM Tris pH 7.5, 5 mM EDTA, 6% glycerol, 1 mM DTT, 100 mM NaCl, 1 nM substrate, RT 45 min, 4% native PAGE in 1x TAE, recombinant protein, label: 32P 5' (T4 PNK)
# T1 sequence (looked up, limits assumed): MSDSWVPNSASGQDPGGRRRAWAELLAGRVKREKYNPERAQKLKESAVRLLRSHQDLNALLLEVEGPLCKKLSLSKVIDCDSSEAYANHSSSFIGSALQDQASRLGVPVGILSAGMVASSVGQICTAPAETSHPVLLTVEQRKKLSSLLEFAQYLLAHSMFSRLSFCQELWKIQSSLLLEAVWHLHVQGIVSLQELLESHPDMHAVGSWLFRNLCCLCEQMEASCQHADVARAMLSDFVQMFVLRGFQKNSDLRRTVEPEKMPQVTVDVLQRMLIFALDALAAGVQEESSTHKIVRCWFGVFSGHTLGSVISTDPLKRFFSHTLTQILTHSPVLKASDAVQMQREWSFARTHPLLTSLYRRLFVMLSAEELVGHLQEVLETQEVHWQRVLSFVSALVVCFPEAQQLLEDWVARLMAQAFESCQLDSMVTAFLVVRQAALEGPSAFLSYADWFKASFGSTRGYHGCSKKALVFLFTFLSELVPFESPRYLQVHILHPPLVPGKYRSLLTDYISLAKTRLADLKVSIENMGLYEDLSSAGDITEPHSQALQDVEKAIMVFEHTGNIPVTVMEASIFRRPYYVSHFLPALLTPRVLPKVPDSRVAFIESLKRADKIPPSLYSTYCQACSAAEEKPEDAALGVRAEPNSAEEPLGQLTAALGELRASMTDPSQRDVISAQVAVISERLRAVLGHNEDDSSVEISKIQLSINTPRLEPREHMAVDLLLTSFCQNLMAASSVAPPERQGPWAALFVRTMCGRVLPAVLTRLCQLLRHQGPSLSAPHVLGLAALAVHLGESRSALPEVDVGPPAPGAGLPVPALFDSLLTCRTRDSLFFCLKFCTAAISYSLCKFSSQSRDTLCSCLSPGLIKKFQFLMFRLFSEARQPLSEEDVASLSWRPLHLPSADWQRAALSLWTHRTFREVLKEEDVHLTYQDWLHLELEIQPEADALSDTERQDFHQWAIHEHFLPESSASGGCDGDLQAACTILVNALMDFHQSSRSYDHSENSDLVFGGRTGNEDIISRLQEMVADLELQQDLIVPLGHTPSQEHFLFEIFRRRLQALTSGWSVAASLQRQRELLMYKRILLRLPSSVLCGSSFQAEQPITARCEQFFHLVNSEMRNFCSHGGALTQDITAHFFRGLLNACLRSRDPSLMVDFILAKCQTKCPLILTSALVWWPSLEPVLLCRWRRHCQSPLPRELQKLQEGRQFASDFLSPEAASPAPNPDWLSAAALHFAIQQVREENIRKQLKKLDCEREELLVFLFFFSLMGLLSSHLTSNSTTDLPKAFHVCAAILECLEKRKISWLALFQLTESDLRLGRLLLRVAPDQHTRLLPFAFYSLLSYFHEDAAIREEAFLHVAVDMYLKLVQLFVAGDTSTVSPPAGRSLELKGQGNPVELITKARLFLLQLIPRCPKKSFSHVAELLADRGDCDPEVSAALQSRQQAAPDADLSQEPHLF
# FANCA + FANCG = conditions: 10 nM each; EMSA: 125 mM Tris pH 7.5, 5 mM EDTA, 6% glycerol, 1 mM DTT, 100 mM NaCl, 1 nM substrate, RT 45 min; 4% native PAGE in 1x TAE; recombinant protein; label: 32P 5' (T4 PNK)
# FANCA + FAAP20 + FANCG = conditions: 10 nM each, no synergy; EMSA: 125 mM Tris pH 7.5, 5 mM EDTA, 6% glycerol, 1 mM DTT, 100 mM NaCl, 1 nM substrate, RT 45 min; 4% native PAGE in 1x TAE; recombinant protein; label: 32P 5' (T4 PNK)
sequence,measurement,setting,value
GACGCTGCCGAATTCTACCAGTGCCTTGCTAGGACATCTTTGCCCACCTGCAGGTTCACCC [EMSA ssDNA 61-mer],binding result,"FANCA (human); 10 nM suboptimal, 80 nM positive control, single-stranded DNA",binds
GACGCUGCCGAAUUCUACCAGUGCCUUGCUAGGACAUCUUUGCCCACCUGCAGGUUCACCC [EMSA ssRNA 61-mer],binding result,FANCA (human); suboptimal FANCA,binds
GTCCTCCACCGCAGCCCACCTGCCCACCTTGTTGCTGATCTCAATCAGCTCTGGA / GCTGGCACGGTCGGATTTAAAGTTAGGGCAGGTGGGCTGCGGTGGAGGACG [splayed arm DNA],binding result,FANCA + FANCG,binds
same,binding result,FANCA (human); FANCA 10 nM suboptimal,binds
same,binding result,FANCA + FAAP20 + FANCG,binds

# For at least one entry, the source does not settle the construct or the ends of the probe. At least one verdict was read from the data and is not stated in words by the source. For some assays here: Where a protein sequence is shown, tags need not be part of it.
